Data set [1] relates to T1, Kofu clone 5/7-C4 E377K,A633T (Artificial (KOD/Pfu chimera)).
T1 sequence (limits assumed): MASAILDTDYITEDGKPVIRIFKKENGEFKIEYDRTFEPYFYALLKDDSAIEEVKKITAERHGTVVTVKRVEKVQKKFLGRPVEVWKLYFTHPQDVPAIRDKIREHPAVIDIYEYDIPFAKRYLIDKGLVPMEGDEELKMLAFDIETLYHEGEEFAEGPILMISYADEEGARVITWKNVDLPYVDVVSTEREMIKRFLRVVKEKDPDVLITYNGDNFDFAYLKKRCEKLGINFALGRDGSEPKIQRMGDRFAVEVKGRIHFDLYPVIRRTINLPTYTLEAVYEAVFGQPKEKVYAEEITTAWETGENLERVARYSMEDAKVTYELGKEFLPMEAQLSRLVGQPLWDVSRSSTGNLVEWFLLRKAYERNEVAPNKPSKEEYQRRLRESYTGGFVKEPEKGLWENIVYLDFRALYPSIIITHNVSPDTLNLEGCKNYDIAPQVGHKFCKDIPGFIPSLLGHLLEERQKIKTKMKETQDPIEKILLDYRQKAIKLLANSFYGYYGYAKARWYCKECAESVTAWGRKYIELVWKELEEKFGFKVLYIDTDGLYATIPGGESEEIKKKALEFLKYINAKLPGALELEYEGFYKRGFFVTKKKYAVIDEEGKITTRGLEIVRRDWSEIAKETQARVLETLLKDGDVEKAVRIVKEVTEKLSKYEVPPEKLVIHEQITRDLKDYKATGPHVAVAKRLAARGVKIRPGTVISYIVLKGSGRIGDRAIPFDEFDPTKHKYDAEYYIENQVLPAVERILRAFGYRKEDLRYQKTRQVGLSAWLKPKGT
Briefly: activity assay. The following applies: M13 primer extension, 2.5 mM MgCl2, 50 C; heparin elution 41.9 mS/cm; purified recombinant protein.

Data set [2] relates to T2, Kofu clone 5/7-H2 (mutation list truncated in print after F721S) A550V,L427F,H459Q,K539R,V600A,I601F,F721S (Artificial (KOD/Pfu chimera)).
T2 sequence (limits assumed): T1 sequence (limits assumed) with K377E, L427F, H459Q, K539R, A550V, V600A, I601F, T633A, F721S
Briefly: activity assay. The conditions noted are these: M13 primer extension, 2.5 mM MgCl2, 50 C; heparin elution 40.3 mS/cm; purified recombinant protein.

Where a chain is given by its changes, count along the chain named. Construct, isoform or probe ends are uncertain for at least one entry. Where a protein sequence is shown, tags need not be part of it.

On to “AACGCCAGGGTTTTCCCAGTCACGACGTTGTAAAACGACG”, for which the activity on this sequence turned out to be 1 fold vs Kofu in data set [1] and 3 fold vs Kofu in data set [2].

The record behind these values is patent US20110269211.
